The record followed here is patent US6664231B1 (priority 1993, dated 2003).

Strings that start with PEPTIDE1 are HELM notation: dots part the residues, brackets hold end groups and non-standard residues. Square brackets hold non-standard residues; d marks the D form. Phe(4-NH2) = Nc1ccc(C[C@H](N)C(=O)O)cc1; 1Nal = N[C@@H](Cc1cccc2ccccc12)C(=O)O; 2Nal = N[C@@H](Cc1ccc2ccccc2c1)C(=O)O; d2Nal = N[C@H](Cc1ccc2ccccc2c1)C(=O)O; Cha = N[C@@H](CC1CCCCC1)C(=O)O; Abu = CC[C@H](N)C(=O)O; Aib = CC(C)(N)C(=O)O

A short description of the data set: general procedure: Fmoc solid-phase peptide synthesis; polystyrene resin, 1% DVB, Fmoc-Rink amide linker, 0.44 mmoles/gram; DIC/HOBt and HBTU/HOBt/DIEA (double coupling). Particulars: whole synthesis, scale of the general procedure between 0.1 grams and 5 grams of starting resin.
For the substance “H-KSKVGWLI[Phe(4-NH2)]LFHKK-NH2 (SMILES CC[C@H](C)[C@H](NC(=O)[C@H](CC(C)C)NC(=O)[C@H](Cc1c[nH]c2ccccc12)NC(=O)CNC(=O)[C@@H](NC(=O)[C@H](CCCCN)NC(=O)[C@H](CO)NC(=O)[C@@H](N)CCCCN)C(C)C)C(=O)N[C@@H](Cc1ccc(N)cc1)C(=O)N[C@@H](CC(C)C)C(=O)N[C@@H](Cc1ccccc1)C(=O)N[C@@H](Cc1c[nH]cn1)C(=O)N[C@@H](CCCCN)C(=O)N[C@@H](CCCCN)C(N)=O)”, the “crude HPLC purity” value stood at 64%.

As to H-KSKVKWLIQLWHKK-NH2, the “crude HPLC purity” value was found to be 67%.

Turning to H-KSKVGWLILLWHKK-NH2, the “crude HPLC purity” value was 55%.

As for H-KSKVKWLIKLFHKK-NH2, the “crude HPLC purity” value is 61%.

For the substance “H-KSKVG[d2Nal]LILLWHKK-NH2 (SMILES CC[C@H](C)[C@H](NC(=O)[C@H](CC(C)C)NC(=O)[C@@H](Cc1ccc2ccccc2c1)NC(=O)CNC(=O)[C@@H](NC(=O)[C@H](CCCCN)NC(=O)[C@H](CO)NC(=O)[C@@H](N)CCCCN)C(C)C)C(=O)N[C@@H](CC(C)C)C(=O)N[C@@H](CC(C)C)C(=O)N[C@@H](Cc1c[nH]c2ccccc12)C(=O)N[C@@H](Cc1c[nH]cn1)C(=O)N[C@@H](CCCCN)C(=O)N[C@@H](CCCCN)C(N)=O)”, the “crude HPLC purity” value is 43%.

Turning to “H-KSKVGWLIQ[1Nal]WHKK-NH2 (SMILES CC[C@H](C)[C@H](NC(=O)[C@H](CC(C)C)NC(=O)[C@H](Cc1c[nH]c2ccccc12)NC(=O)CNC(=O)[C@@H](NC(=O)[C@H](CCCCN)NC(=O)[C@H](CO)NC(=O)[C@@H](N)CCCCN)C(C)C)C(=O)N[C@@H](CCC(N)=O)C(=O)N[C@@H](Cc1cccc2ccccc12)C(=O)N[C@@H](Cc1c[nH]c2ccccc12)C(=O)N[C@@H](Cc1c[nH]cn1)C(=O)N[C@@H](CCCCN)C(=O)N[C@@H](CCCCN)C(N)=O)”, the “crude HPLC purity” value is on record as 34%.

As to “H-KSKVGWLI[Phe(4-NH2)]LWHKK-NH2 (SMILES CC[C@H](C)[C@H](NC(=O)[C@H](CC(C)C)NC(=O)[C@H](Cc1c[nH]c2ccccc12)NC(=O)CNC(=O)[C@@H](NC(=O)[C@H](CCCCN)NC(=O)[C@H](CO)NC(=O)[C@@H](N)CCCCN)C(C)C)C(=O)N[C@@H](Cc1ccc(N)cc1)C(=O)N[C@@H](CC(C)C)C(=O)N[C@@H](Cc1c[nH]c2ccccc12)C(=O)N[C@@H](Cc1c[nH]cn1)C(=O)N[C@@H](CCCCN)C(=O)N[C@@H](CCCCN)C(N)=O)”, the “crude HPLC purity” value is reported as 30%.

As for H-KSKVGWLILLFHKKKSKVGWLIQLFHKK-NH2, the “crude HPLC purity” value came to 31%.

Regarding H-KSKVGWLIQLAHKK-NH2, the “crude HPLC purity” value is 63%.

As to H-KAKVGWLIQLFHKK-NH2, the “crude HPLC purity” value came to 70%.

As for “PEPTIDE1{V.H.V.H.I.S.K.S.K.V.G.W.L.I.Q.L.F.H.K.K.I.E.[am]}$$$$V2.0”, the “crude HPLC purity” value is recorded as 18%.

For the substance C-148-161-C (CKSKVGWLIQLFHKKC), the “crude HPLC purity” value is 28%.

Regarding H-KSKVGWLIQLFHKW-NH2, the “crude HPLC purity” value worked out at 50%.

For “K - K - L - L - L - Q - L - K - K (KKLLLQLKK)”, the “final HPLC purity” value came out at 99%.

In the case of H-LIQLFH-NH2, the “crude HPLC purity” value amounted to 64%.

Regarding H-KSKVGWLITLFHKK-NH2, the “crude HPLC purity” value came out at 26%.

For “H-KSKVGWLIQ[1Nal]FHK[1Nal]-NH2 (SMILES CC[C@H](C)[C@H](NC(=O)[C@H](CC(C)C)NC(=O)[C@H](Cc1c[nH]c2ccccc12)NC(=O)CNC(=O)[C@@H](NC(=O)[C@H](CCCCN)NC(=O)[C@H](CO)NC(=O)[C@@H](N)CCCCN)C(C)C)C(=O)N[C@@H](CCC(N)=O)C(=O)N[C@@H](Cc1cccc2ccccc12)C(=O)N[C@@H](Cc1ccccc1)C(=O)N[C@@H](Cc1c[nH]cn1)C(=O)N[C@@H](CCCCN)C(=O)N[C@@H](Cc1cccc2ccccc12)C(N)=O)”, the “crude HPLC purity” value is given as 54%.

As to H-KWLIQLFHKP-NH2, the “crude HPLC purity” value stood at 64% and the “final HPLC purity” value was found to be 98%.

For “H-KSKVGWLIQ[1Nal]F[1Nal]KK-NH2 (SMILES CC[C@H](C)[C@H](NC(=O)[C@H](CC(C)C)NC(=O)[C@H](Cc1c[nH]c2ccccc12)NC(=O)CNC(=O)[C@@H](NC(=O)[C@H](CCCCN)NC(=O)[C@H](CO)NC(=O)[C@@H](N)CCCCN)C(C)C)C(=O)N[C@@H](CCC(N)=O)C(=O)N[C@@H](Cc1cccc2ccccc12)C(=O)N[C@@H](Cc1ccccc1)C(=O)N[C@@H](Cc1cccc2ccccc12)C(=O)N[C@@H](CCCCN)C(=O)N[C@@H](CCCCN)C(N)=O)”, the “crude HPLC purity” value stood at 44%.

Turning to “H-KSKVG[2Nal]LIQLFHKK-NH2 (SMILES CC[C@H](C)[C@H](NC(=O)[C@H](CC(C)C)NC(=O)[C@H](Cc1ccc2ccccc2c1)NC(=O)CNC(=O)[C@@H](NC(=O)[C@H](CCCCN)NC(=O)[C@H](CO)NC(=O)[C@@H](N)CCCCN)C(C)C)C(=O)N[C@@H](CCC(N)=O)C(=O)N[C@@H](CC(C)C)C(=O)N[C@@H](Cc1ccccc1)C(=O)N[C@@H](Cc1c[nH]cn1)C(=O)N[C@@H](CCCCN)C(=O)N[C@@H](CCCCN)C(N)=O)”, the “crude HPLC purity” value was determined as 80%.

H-KSKVGWLIQLFAKK-NH2: the “crude HPLC purity” value came out at 59%.

As for “PYR - PYR - 153-157 - PYR - PYR (AAWLIQLAA; pyridyl residues)”, the “crude HPLC purity” value stood at 76% and the “final HPLC purity” value is listed as 99%.

Take PEPTIDE1{K.W.L.I.Q.L.K.K.[am]}$$$$V2.0: the “crude HPLC purity” value was 67%.

Consider “H-KSKV[Phe(4-NH2)]WLIQ[1Nal]FHKK-NH2 (SMILES CC[C@H](C)[C@H](NC(=O)[C@H](CC(C)C)NC(=O)[C@H](Cc1c[nH]c2ccccc12)NC(=O)[C@H](Cc1ccc(N)cc1)NC(=O)[C@@H](NC(=O)[C@H](CCCCN)NC(=O)[C@H](CO)NC(=O)[C@@H](N)CCCCN)C(C)C)C(=O)N[C@@H](CCC(N)=O)C(=O)N[C@@H](Cc1cccc2ccccc12)C(=O)N[C@@H](Cc1ccccc1)C(=O)N[C@@H](Cc1c[nH]cn1)C(=O)N[C@@H](CCCCN)C(=O)N[C@@H](CCCCN)C(N)=O)”, for which the “crude HPLC purity” value was 73%.

Consider “H-KSKVGWLIQL[1Nal]HKK-NH2 (SMILES CC[C@H](C)[C@H](NC(=O)[C@H](CC(C)C)NC(=O)[C@H](Cc1c[nH]c2ccccc12)NC(=O)CNC(=O)[C@@H](NC(=O)[C@H](CCCCN)NC(=O)[C@H](CO)NC(=O)[C@@H](N)CCCCN)C(C)C)C(=O)N[C@@H](CCC(N)=O)C(=O)N[C@@H](CC(C)C)C(=O)N[C@@H](Cc1cccc2ccccc12)C(=O)N[C@@H](Cc1c[nH]cn1)C(=O)N[C@@H](CCCCN)C(=O)N[C@@H](CCCCN)C(N)=O)”, for which the “crude HPLC purity” value is recorded as 41%.

“H-KSKVGWLIQLW[1Nal]KK-NH2 (SMILES CC[C@H](C)[C@H](NC(=O)[C@H](CC(C)C)NC(=O)[C@H](Cc1c[nH]c2ccccc12)NC(=O)CNC(=O)[C@@H](NC(=O)[C@H](CCCCN)NC(=O)[C@H](CO)NC(=O)[C@@H](N)CCCCN)C(C)C)C(=O)N[C@@H](CCC(N)=O)C(=O)N[C@@H](CC(C)C)C(=O)N[C@@H](Cc1c[nH]c2ccccc12)C(=O)N[C@@H](Cc1cccc2ccccc12)C(=O)N[C@@H](CCCCN)C(=O)N[C@@H](CCCCN)C(N)=O)”: the “crude HPLC purity” value was determined as 26%.

Turning to “H-KSKVGWLI[Phe(4-NH2)]LFHK[1Nal]-NH2 (SMILES CC[C@H](C)[C@H](NC(=O)[C@H](CC(C)C)NC(=O)[C@H](Cc1c[nH]c2ccccc12)NC(=O)CNC(=O)[C@@H](NC(=O)[C@H](CCCCN)NC(=O)[C@H](CO)NC(=O)[C@@H](N)CCCCN)C(C)C)C(=O)N[C@@H](Cc1ccc(N)cc1)C(=O)N[C@@H](CC(C)C)C(=O)N[C@@H](Cc1ccccc1)C(=O)N[C@@H](Cc1c[nH]cn1)C(=O)N[C@@H](CCCCN)C(=O)N[C@@H](Cc1cccc2ccccc12)C(N)=O)”, the “crude HPLC purity” value is listed as 43%.

In the case of “H-KSKVG[Aib]LIQLFHKK-NH2 (SMILES CC[C@H](C)[C@H](NC(=O)[C@H](CC(C)C)NC(=O)C(C)(C)NC(=O)CNC(=O)[C@@H](NC(=O)[C@H](CCCCN)NC(=O)[C@H](CO)NC(=O)[C@@H](N)CCCCN)C(C)C)C(=O)N[C@@H](CCC(N)=O)C(=O)N[C@@H](CC(C)C)C(=O)N[C@@H](Cc1ccccc1)C(=O)N[C@@H](Cc1c[nH]cn1)C(=O)N[C@@H](CCCCN)C(=O)N[C@@H](CCCCN)C(N)=O)”, the “crude HPLC purity” value stood at 44%.

As to H-KSKVGWLIQLFHAK-NH2, the “crude HPLC purity” value amounted to 53%.

Regarding H-KSKVGWLAQLFHKK-NH2, the “crude HPLC purity” value is reported as 70%.

For the substance H-KSKVGWLIQLFHKF-NH2, the “crude HPLC purity” value was found to be 60%.

For the substance H-KSKVGWLIDLFHKK-NH2, the “crude HPLC purity” value was found to be 60%.

As for “H-KSKVG[Cha]LIQLFHKK-NH2 (SMILES CC[C@H](C)[C@H](NC(=O)[C@H](CC(C)C)NC(=O)[C@H](CC1CCCCC1)NC(=O)CNC(=O)[C@@H](NC(=O)[C@H](CCCCN)NC(=O)[C@H](CO)NC(=O)[C@@H](N)CCCCN)C(C)C)C(=O)N[C@@H](CCC(N)=O)C(=O)N[C@@H](CC(C)C)C(=O)N[C@@H](Cc1ccccc1)C(=O)N[C@@H](Cc1c[nH]cn1)C(=O)N[C@@H](CCCCN)C(=O)N[C@@H](CCCCN)C(N)=O)”, the “crude HPLC purity” value worked out at 60%.

Regarding H-KSKVKVLIQLFHKK-NH2, the “crude HPLC purity” value was determined as 52%.

Take H-WLIQLK-NH2: the “crude HPLC purity” value was determined as 66%.

On to H-KKWLIQLFHKP-NH2, for which the “crude HPLC purity” value is 61% and the “final HPLC purity” value came out at 98%.

H-KSKVGWLISLFHKK-NH2: the “crude HPLC purity” value worked out at 34%.

Take H-KSKVKFLIQLFHKK-NH2: the “crude HPLC purity” value is 61%.

Turning to “H-KSKVG[Abu]LIQLFHKK-NH2 (SMILES CC[C@H](NC(=O)CNC(=O)[C@@H](NC(=O)[C@H](CCCCN)NC(=O)[C@H](CO)NC(=O)[C@@H](N)CCCCN)C(C)C)C(=O)N[C@@H](CC(C)C)C(=O)N[C@H](C(=O)N[C@@H](CCC(N)=O)C(=O)N[C@@H](CC(C)C)C(=O)N[C@@H](Cc1ccccc1)C(=O)N[C@@H](Cc1c[nH]cn1)C(=O)N[C@@H](CCCCN)C(=O)N[C@@H](CCCCN)C(N)=O)[C@@H](C)CC)”, the “crude HPLC purity” value is on record as 44% and the “final HPLC purity” value was determined as 94%.

For “K - K - L - L - Q - L - L - K - K (KKLLQLLKK)”, the “final HPLC purity” value came out at 99%.

With H-KSKVGWLIQFFHKK-NH2, the “crude HPLC purity” value was 46%.
